According to the supplement of paper PMC4635364:
Counter-ions that a name gives are not always drawn. This is one part of the list. Repeats in this data set agree poorly, so a single value says little.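 Human fetal ventral-midbrain neural progenitor line ReNCell VM, differentiated without mitogens. Images stained for doublecortin (early neurons) or tyrosine hydroxylase (dopaminergic neurons) were scored by blinded raters against untreated wells (0 = no change). Repeats and both raters were averaged, and compounds averaging 2 or higher were picked as hits for retesting.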

Key:
[1] = tested on: ReNCell VM; test: neuronal differentiation score (DCX+ cell fraction vs untreated, manual image score) (score (-3 to 3)); higher = more neuronal differentiation; conditions: 2 uM, 2 weeks
[2] = tested on: ReNCell VM; test: dopaminergic neuron differentiation score (TH+ cell fraction vs untreated, manual image score) (score (0 to 3)); higher = more TH+ dopaminergic neuron differentiation; conditions: 2 uM, 4 weeks, BDNF 10 ng/ml + GDNF 10 ng/ml

For `O=S(=O)(O)c1cc(N=C=S)ccc1/C=C/c1ccc(N=C=S)cc1S(=O)(=O)O`, the neuronal differentiation score ([1]; library: Spectrum) was inactive: 0 and the “dopaminergic neuron differentiation score” value ([2]; library: Spectrum) was inactive: 0.
In the case of `O=c1[nH]c(=O)n([C@H]2C[C@H](O)[C@@H](CO)O2)cc1I` [Idoxuridine], the neuronal differentiation score ([1]; library: Prestwick) is reported as inactive: 0 and the “dopaminergic neuron differentiation score” value ([2]; library: Prestwick) is reported as inactive: 0.
`[O-][n+]1cccc(CO)c1` was tested, and the neuronal differentiation score ([1]; library: Spectrum) was inactive: 0 and the “dopaminergic neuron differentiation score” value ([2]; library: Spectrum) was inactive: 0.
With `OCC1OC(n2cnc3c(NC4CCCCC4)ncnc32)C(O)C1O` (stereo not drawn) [N6-Cyclohexyladenosine] the neuronal differentiation score ([1]; library: LOPAC) was inactive: -3 and the “dopaminergic neuron differentiation score” value ([2]; library: LOPAC) was inactive: 0.
In the case of `CCCCCCCCCCCCCCCCCC(=O)OC(CC(=O)O)C[N+](C)(C)C` (racemic) [DL-Stearoylcarnitine chloride], the neuronal differentiation score ([1]; library: LOPAC) is reported as inactive: 0 and the “dopaminergic neuron differentiation score” value ([2]; library: LOPAC) is reported as inactive: 0.
In the case of `CC[C@]12CCCN3CCc4c(n(c5ccccc45)[C@@](O)(C(=O)OC)C1)[C@@H]32`, the neuronal differentiation score ([1]; library: Spectrum) is reported as inactive: 0 and the “dopaminergic neuron differentiation score” value ([2]; library: Spectrum) is reported as inactive: 0.
In the case of `COc1cc(C2Oc3cc([C@H]4Oc5cc(O)cc(O)c5C(=O)[C@@H]4O)ccc3OC2CO)ccc1O` (stereo partly drawn), the neuronal differentiation score ([1]; library: Spectrum) is reported as inactive: 0 and the “dopaminergic neuron differentiation score” value ([2]; library: Spectrum) is reported as inactive: 0.
In the case of `CCN(CC)CCOc1ccc(C(=C(Cl)c2ccccc2)c2ccccc2)cc1`, the neuronal differentiation score ([1]; library: Spectrum) is reported as inactive: 0 and the “dopaminergic neuron differentiation score” value ([2]; library: Spectrum) is reported as inactive: 0.
`Clc1ccc(C(Cn2ccnc2)OCc2c(Cl)cccc2Cl)c(Cl)c1` (stereo not drawn) [Isoconazole] was tested, and the neuronal differentiation score ([1]; library: Prestwick) was inactive: 0 and the “dopaminergic neuron differentiation score” value ([2]; library: Prestwick) was inactive: 0.
For `Cc1c(O)c(=O)ccn1C`, the neuronal differentiation score ([1]; library: Spectrum) was inactive: 0 and the “dopaminergic neuron differentiation score” value ([2]; library: Spectrum) was inactive: 0.
With `CN[C@@H]1[C@H](O)[C@H](NC)[C@H]2O[C@@]3(O)C(=O)C[C@@H](C)O[C@H]3O[C@@H]2[C@H]1O` the neuronal differentiation score ([1]; library: Spectrum) was inactive: 0 and the “dopaminergic neuron differentiation score” value ([2]; library: Spectrum) was inactive: 0.
`COC(=O)C1=C(C)NC(C)=C(C(=O)OCCSc2ccccc2)C1C` (stereo not drawn) was tested, and the neuronal differentiation score ([1]; library: Tocriscreen) was inactive: 0 and the “dopaminergic neuron differentiation score” value ([2]; library: Tocriscreen) was inactive: 0.
For `Nc1nc(Cl)nc2c1ncn2[C@@H]1O[C@H](CO)[C@@H](O)[C@@H]1F` [Clofarabine], the neuronal differentiation score ([1]; library: Tocriscreen) was inactive: 0 and the “dopaminergic neuron differentiation score” value ([2]; library: Tocriscreen) was inactive: 0.
`NC1C=CC=C(C(=O)O)C1` (stereo not drawn) [Gabaculine hydrochloride] was tested, and the neuronal differentiation score ([1]; library: LOPAC) was inactive: 0 and the “dopaminergic neuron differentiation score” value ([2]; library: LOPAC) was inactive: 0.
`CCn1cc(C(=O)O)c(=O)c2cnc(N3CCNCC3)nc21` was tested, and the neuronal differentiation score ([1]; library: Spectrum) was inactive: 0 and the “dopaminergic neuron differentiation score” value ([2]; library: Spectrum) was inactive: 1.
With `CC(=O)Oc1cc2c(c(C)c1OC(C)=O)CC=C1[C@@]2(C)CC[C@@]2(C)C3C[C@](C)(C(=O)O)CC[C@]3(C)CC[C@]12C` (stereo partly drawn) the neuronal differentiation score ([1]; library: Spectrum) was inactive: 0 and the “dopaminergic neuron differentiation score” value ([2]; library: Spectrum) was inactive: 0.
With `CC(=O)Nc1c(I)cc(I)c(C(=O)O)c1I` the neuronal differentiation score ([1]; library: Spectrum) was inactive: 0 and the “dopaminergic neuron differentiation score” value ([2]; library: Spectrum) was inactive: 0.
In the case of `CC/C=C\C/C=C\C/C=C\C/C=C\C/C=C\C/C=C\CCC(=O)O`, the neuronal differentiation score ([1]; library: Spectrum) is reported as inactive: 0 and the “dopaminergic neuron differentiation score” value ([2]; library: Spectrum) is reported as inactive: 0.
With `COC(=O)/C=C/C(=O)OC` the neuronal differentiation score ([1]; library: Spectrum) was inactive: -1 and the “dopaminergic neuron differentiation score” value ([2]; library: Spectrum) was inactive: 0.
With `CN(Cc1ccccc1)C(=O)[C@H](Cc1ccc2ccccc2c1)NC(=O)[C@@H]1C[C@@H](O)CN1C(=O)c1cn(C)c2ccccc12` the neuronal differentiation score ([1]; library: Tocriscreen) was inactive: 0 and the “dopaminergic neuron differentiation score” value ([2]; library: Tocriscreen) was inactive: 0.
For `CCC(Cc1c(I)cc(I)c(N)c1I)C(=O)O` (stereo not drawn), the neuronal differentiation score ([1]; library: Spectrum) was inactive: 0 and the “dopaminergic neuron differentiation score” value ([2]; library: Spectrum) was inactive: 0.
`Cc1nc2c([nH]1)c(=O)n(C)c(=O)n2Cc1ccco1` [Furafylline] was tested, and the neuronal differentiation score ([1]; library: LOPAC) was inactive: 0 and the “dopaminergic neuron differentiation score” value ([2]; library: LOPAC) was inactive: 0.
In the case of `NCCC1CCCC(CCN)N1` (stereo not drawn) [MDL 26,630 trihydrochloride], the neuronal differentiation score ([1]; library: LOPAC) is reported as inactive: 0 and the “dopaminergic neuron differentiation score” value ([2]; library: LOPAC) is reported as inactive: 0.
For `Nc1ncnc2c1ncn2[C@@H]1O[C@H](COP(=O)(O)OP(=O)(O)OP(=O)(O)OP(=O)(O)OC[C@@H]2O[C@H](n3cnc4c(N)ncnc43)C(O)[C@@H]2O)[C@H](O)C1O` (stereo partly drawn) [P1,P4-Di(adenosine-5')tetraphosphate triammonium], the neuronal differentiation score ([1]; library: LOPAC) was inactive: 0 and the “dopaminergic neuron differentiation score” value ([2]; library: LOPAC) was inactive: 0.
In the case of `C#C[C@]1(OC(C)=O)CC[C@H]2[C@@H]3CCC4=C[C@@H](OC(C)=O)CC[C@@H]4[C@H]3CC[C@@]21C`, the neuronal differentiation score ([1]; library: Spectrum) is reported as inactive: 0 and the “dopaminergic neuron differentiation score” value ([2]; library: Spectrum) is reported as inactive: 0.
In the case of `CCCCCC[C@@H]([C@@H](C)O)n1cnc2c(N)ncnc21` [erythro-9-(2-Hydroxy-3-nonyl)adenine hydrochloride], the neuronal differentiation score ([1]; library: LOPAC) is reported as inactive: 0 and the “dopaminergic neuron differentiation score” value ([2]; library: LOPAC) is reported as inactive: 0.
`CN(C)C/C=C(/c1ccc(Br)cc1)c1cccnc1` [Zimelidine dihydrochloride monohydrate] was tested, and the neuronal differentiation score ([1]; library: Prestwick) was inactive: 0 and the “dopaminergic neuron differentiation score” value ([2]; library: Prestwick) was inactive: 0.
With `CCOc1cc(C(=O)Nc2ccc(Cl)c(-c3nc4ccccc4[nH]3)c2)cc(OCC)c1OCC` the neuronal differentiation score ([1]; library: Tocriscreen) was inactive: 0 and the “dopaminergic neuron differentiation score” value ([2]; library: Tocriscreen) was inactive: 0.
`O=C1C=C(O)c2ccccc2C1=O` [2-hydroxy-1,4-naphthoquinone] was tested, and the neuronal differentiation score ([1]; library: Natural) was inactive: 1 and the “dopaminergic neuron differentiation score” value ([2]; library: Natural) was inactive: 0.
